Experimental data published in the supplement of paper PMC10735217.
Counter-ions that a name gives are not always drawn. This is one part of the list. Repeats in this data set agree poorly, so a single value says little.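 The human kidney-derived cells carry a stably integrated construct of eight TEAD-binding elements driving luciferase, read by luminescence in a drug-repurposing library screen. A compound counts as a hit when its signal is more than five robust Z scores above the plate mean.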

Test system: HEK293A TEAD-LUC reporter
Experiment: TEAD-luciferase reporter activity (YAP activation), robust Z score vs plate; higher = stronger YAP/TEAD activation
Conditions: 24 h

Row | SMILES | TEAD-luciferase reporter activity (compound concentration: 200 nM) | TEAD-luciferase reporter activity (compound concentration: 2 uM) | TEAD-luciferase reporter activity (compound concentration: 10 uM)
1 | Cc1ccc(S(=O)(=O)NCl)cc1 | inactive: -1.63 | inactive: -1.37 | inactive: -0.355
2 | CC1(C)CCC(C)(C)c2cc(C(=O)Nc3ccc(C(=O)O)cc3)ccc21 | inactive: -0.902 | inactive: -0.127 | inactive: 0.342
3 | CCCC1C(=O)N2C(N(C)C)=Nc3ccc(C)cc3N2C1=O (stereo not given) [azapropazone] | inactive: 0.271 | inactive: -0.511 | inactive: -1.32
4 | O=C1NCc2ccccc2CC12CCCCN2Cc1ccccc1 (stereo not given) | inactive: 3.21 | – | inactive: 0.297
5 | Cc1ccc2c(c1)CC1(CC2)CNC=N1 (stereo not given) | inactive: -0.743 | inactive: -1.25 | inactive: 2.24
6 | CC(Oc1c(Cl)cccc1Cl)C1=NCCN1 (stereo not given) | inactive: -0.257 | inactive: -1.42 | active: 5.22
7 | C[C@@H](O)C(=N)NS(=O)(=O)c1cc(C(=O)C(C(=O)c2cc(F)ccc2F)=C2N=c3ccccc3=N2)ccc1F | inactive: -0.234 | inactive: -1.64 | inactive: -0.715
8 | CCCCCCCCCCCCCCCCCC[S+](CCC)c1ccccc1C(=O)OCC (stereo not given) | inactive: -1.1 | inactive: 0.182 | inactive: 2.29
9 | CCCCCCCC/C=C\CCCCCCCC(=O)NCc1ccc(O)c(OC)c1 [Olvanil] | inactive: -0.286 | inactive: -0.393 | inactive: 0.96
10 | Cn1c(=O)cc(N2CCC[C@@H](N)C2)n(Cc2ccccc2C#N)c1=O [Alogliptin] | inactive: -1.51 | – | inactive: 0.416
11 | Cn1c(=O)cc(N2CCC[C@@H](N)C2)n(Cc2ccccc2C#N)c1=O [alogliptin benzoate] | – | inactive: 0.0471 | –
12 | CC(=O)N[C@@H](Cc1ccc(OP(=O)(O)O)cc1)C(=O)N[C@@H](C)c1ccc(OCC2CCCCC2)c(C(N)=O)c1 | inactive: -1.81 | inactive: -1.08 | inactive: -1.3
13 | COc1ccc2c(c1)[C@]1(C[C@H]1c1ccc3c(/C=C/c4ccc(CN5C[C@@H](C)O[C@@H](C)C5)cc4)n[nH]c3c1)C(=O)N2 | inactive: -0.834 | inactive: 0.089 | inactive: 2.27
14 | CCCc1nc2c(C)cc(-c3nc4ccccc4n3C)cc2n1Cc1ccc(-c2ccccc2C(=O)O)cc1 | inactive: 1.06 | – | inactive: -2.21
15 | CCCc1nc2c(C)cc(-c3nc4ccccc4n3C)cc2n1Cc1ccc(-c2ccccc2C(=O)O)cc1 [Telmisartan] | – | inactive: -1.36 | –
16 | Cc1cc(OCCN2CCOCC2)nn1-c1ccc2ccccc2c1 | inactive: 0.276 | inactive: -0.519 | inactive: -1.14
17 | CN(Cc1ccc(F)cc1)CC1CCCCC1 | inactive: -2.87 | – | inactive: -0.43
18 | NC1C(O)OC(CO)C(O)C1O (stereo not given) [Glucosamine sulfate] | inactive: -1.13 | inactive: -0.061 | inactive: 0.403
19 | O=C1NCNC1(c1ccccc1)c1ccccc1 [Doxenitoin] | inactive: -0.426 | inactive: -0.594 | inactive: -1.38
20 | CC1CCC2(OC1)OC1CC3C4CC(O)C5CC(O)CCC5(C)C4CCC3(C)C1C2C (stereo not given) | inactive: -1.19 | inactive: -1.74 | inactive: 1.54
21 | O=C(O)C1(C(=O)O)CCC1 [Dicycloplatin] | inactive: -0.884 | – | inactive: 0.796
22 | O=C(O)C1(C(=O)O)CCC1 [1,1-Cyclobutanedicarboxylic Acid] | – | inactive: -2.26 | –
23 | CCC[C@@H]1O[C@@H]2C[C@H]3[C@@H]4C[C@H](F)C5=CC(=O)CC[C@]5(C)[C@@]4(F)[C@@H](O)C[C@]3(C)[C@]2(C(=O)S[C@H]2CCOC2=O)O1 | inactive: 0.359 | inactive: 1.06 | inactive: 1.63
24 | CC1(C)S[C@H]2[C@H](NC(=O)C(C(=O)Oc3ccc4c(c3)CCC4)c3ccccc3)C(=O)N2[C@@H]1C(=O)O (stereo not given in full) | inactive: -1.15 | inactive: -0.152 | inactive: 0.672
25 | O=C(CN1C(=O)C2(CCCC2)NC[C@H]1c1cc(F)cc(F)c1)Nc1ccc2c(c1)C[C@@]1(C2)C(=O)Nc2ncccc21 | inactive: 0.705 | inactive: -0.599 | inactive: 0.927
26 | COc1ccccc1C(=O)N1CCC(N2Cc3ccccc3C2=O)CC1 | inactive: 1.57 | – | inactive: 0.43
27 | Nc1nc(-c2nn(Cc3ccccc3F)c3ncccc23)nc(N)c1N1CCOCC1 | inactive: -1.35 | inactive: -0.307 | inactive: 1.61
28 | C[C@]12C=CC(=O)C=C1[C@@H](F)C[C@@H]1[C@@H]2[C@@H](O)C[C@@]2(C)[C@H]1CC[C@]2(O)C(=O)CO | inactive: 3.66 | inactive: 0.355 | inactive: 3.41
29 | Cc1ncc(NC(=O)c2ccc(CN3CCN(C)CC3)c(C(F)(F)F)c2)cc1Nc1nccc(-c2cccnc2)n1 [Flumatinib mesylate] | inactive: -1.73 | inactive: -1.25 | inactive: -1.08

At a glance, part of the list above.
Row | SMILES | TEAD-luciferase reporter activity (compound concentration: 200 nM) | TEAD-luciferase reporter activity (compound concentration: 2 uM) | TEAD-luciferase reporter activity (compound concentration: 10 uM)
15 | CCCc1nc2c(C)cc(-c3nc4ccccc4n3C)cc2n1Cc1ccc(-c2ccccc2C(=O)O)cc1 [Telmisartan] | – | inactive: -1.36 | –
16 | Cc1cc(OCCN2CCOCC2)nn1-c1ccc2ccccc2c1 | inactive: 0.276 | inactive: -0.519 | inactive: -1.14
